Experimental data reported in paper PMC4449183, “Structural-Functional Analysis Reveals a Specific Domain Organization in Family GH20 Hexosaminidases” (PLoS ONE, 2015).
No constants are given. Whether binding was seen depends on the method and setting. Some binding calls cover weakened binding; strength is not graded here.

T1: Construct A (residues 40–528) of B. bifidum lacto-N-biosidase, GH20b-GH20-α (Bifidobacterium bifidum) (UniProt B3TLD6)
T1 sequence: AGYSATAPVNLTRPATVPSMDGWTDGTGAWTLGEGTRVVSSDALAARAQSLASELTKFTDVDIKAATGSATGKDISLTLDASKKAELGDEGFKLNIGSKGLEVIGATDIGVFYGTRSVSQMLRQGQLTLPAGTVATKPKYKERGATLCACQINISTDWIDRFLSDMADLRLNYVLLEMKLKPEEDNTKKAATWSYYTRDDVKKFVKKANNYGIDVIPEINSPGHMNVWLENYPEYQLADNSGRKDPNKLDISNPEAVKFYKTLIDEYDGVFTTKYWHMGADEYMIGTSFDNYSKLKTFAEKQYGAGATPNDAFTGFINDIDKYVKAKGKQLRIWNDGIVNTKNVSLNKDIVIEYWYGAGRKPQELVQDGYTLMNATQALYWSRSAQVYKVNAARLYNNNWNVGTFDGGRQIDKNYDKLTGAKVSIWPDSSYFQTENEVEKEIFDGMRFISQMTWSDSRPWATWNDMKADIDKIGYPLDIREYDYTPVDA


How the values were obtained:
[1] = target: T1, Construct A (residues 40–528) of B. bifidum lacto-N-biosidase, GH20b-GH20-α (Bifidobacterium bifidum); assay: SEC; mixture of construct A (42 μM) with excess of construct F (245 μM) on Superdex 200 in buffer A, calibrated with protein standards; fractions analysed by SDS-PAGE and hydrolase activity; in duplicate; both purified
[2] = target: Bifidobacterium bifidum lacto-N-biosidase, full length protein (37–1064), without the signal peptide and membrane anchor regions (Bifidobacterium bifidum) (UniProt B3TLD6); assay: SEC; single purified proteins on XK16/60 Superdex 200 in buffer A (Na2HPO4 20 mM, NaCl 150 mM, pH 7.5); both purified
[3] = target: Bifidobacterium bifidum lacto-N-biosidase, full length protein (37–1064), without the signal peptide and membrane anchor regions (Bifidobacterium bifidum) (UniProt B3TLD6); assay: dynamic light scattering; Nano ZS Nanosizer, 632.8 nm, scattering angle 173 degrees, 25°C, protein in buffer A without dilution; both purified

| binding [1] | binding [2] | binding [3] | Binder |
| --- | --- | --- | --- |
| binds |  |  | Construct F (546–776) of B. bifidum lacto-N-biosidase, the single lectin domain (domain or fragment, Bifidobacterium bifidum, UniProt B3TLD6 546-776, looked up) LITTPDGYYQMKDTVSGKCLALFTGSKHLDVVTQVGARPELRNCADVSVGQDQRNTANERNTQKWQIRADKDGKYTISPALTQQRLAIATGNEQNIDLETHRPAAGTVAQFPADLVSDNALFTLTGHMGMSATVDSKTVNPASPSKITVKVRAASNANTGDVTVTPVVPEGWEIKPGSVSLKSIPAGKAAIAYFNVVNTTGTGDATVQFKLTNTKTGEELGTTSVALTGSL |
|  | no binding | no binding | Bifidobacterium bifidum lacto-N-biosidase, full length protein (37–1064), without the signal peptide and membrane anchor regions (enzyme, UniProt B3TLD6 37-1064) DSAAGYSATAPVNLTRPATVPSMDGWTDGTGAWTLGEGTRVVSSDALAARAQSLASELTKFTDVDIKAATGSATGKDISLTLDASKKAELGDEGFKLNIGSKGLEVIGATDIGVFYGTRSVSQMLRQGQLTLPAGTVATKPKYKERGATLCACQINISTDWIDRFLSDMADLRLNYVLLEMKLKPEEDNTKKAATWSYYTRDDVKKFVKKANNYGIDVIPEINSPGHMNVWLENYPEYQLADNSGRKDPNKLDISNPEAVKFYKTLIDEYDGVFTTKYWHMGADEYMIGTSFDNYSKLKTFAEKQYGAGATPNDAFTGFINDIDKYVKAKGKQLRIWNDGIVNTKNVSLNKDIVIEYWYGAGRKPQELVQDGYTLMNATQALYWSRSAQVYKVNAARLYNNNWNVGTFDGGRQIDKNYDKLTGAKVSIWPDSSYFQTENEVEKEIFDGMRFISQMTWSDSRPWATWNDMKADIDKIGYPLDIREYDYTPVDAGIYDIPQLKSISKGPWELITTPDGYYQMKDTVSGKCLALFTGSKHLDVVTQVGARPELRNCADVSVGQDQRNTANERNTQKWQIRADKDGKYTISPALTQQRLAIATGNEQNIDLETHRPAAGTVAQFPADLVSDNALFTLTGHMGMSATVDSKTVNPASPSKITVKVRAASNANTGDVTVTPVVPEGWEIKPGSVSLKSIPAGKAAIAYFNVVNTTGTGDATVQFKLTNTKTGEELGTTSVALTGSLTKDVEASDYAASSQETTGEHAPVGNAFDKNANTFWHSKYSNPSANLPHWLAFKASPGEGNKIAAITHLYRQDKLNGPAKNVAVYVVAASDANSVADVTNWGEPVATAEFPYTKELQTIALPNTIPSGDVYVKFQINDAWGLTETSAGVTWAAVAELAATAKATPVELTEPEQPKDNPEVTETPEATGVTVSGDGVANGALSLKKGTTAQLTAKVAPDDADQAVTWASSDDKVVTVDKTGKVTAVAKGVAKVTATTANGKSASVTVTVTEDSEVPGPTGPTEPTKPGTE |
